Assay results published in the supplement of paper PMC10849652.
Some of the results follow.

Protein sequences, listed by entry. Tags and fused reporters are not part of them. Lines headed by an entry give the natural chain unless they say otherwise; changes in a name come on top.
UniProt Q8N386: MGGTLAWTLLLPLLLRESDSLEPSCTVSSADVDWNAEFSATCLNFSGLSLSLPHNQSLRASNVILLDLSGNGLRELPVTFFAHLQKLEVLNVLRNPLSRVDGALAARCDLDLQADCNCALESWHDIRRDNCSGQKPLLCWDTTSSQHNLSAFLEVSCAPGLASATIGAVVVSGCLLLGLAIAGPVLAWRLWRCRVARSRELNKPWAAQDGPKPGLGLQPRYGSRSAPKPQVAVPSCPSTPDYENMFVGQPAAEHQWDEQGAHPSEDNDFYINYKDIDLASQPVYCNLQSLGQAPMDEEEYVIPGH
UniProt Q07954: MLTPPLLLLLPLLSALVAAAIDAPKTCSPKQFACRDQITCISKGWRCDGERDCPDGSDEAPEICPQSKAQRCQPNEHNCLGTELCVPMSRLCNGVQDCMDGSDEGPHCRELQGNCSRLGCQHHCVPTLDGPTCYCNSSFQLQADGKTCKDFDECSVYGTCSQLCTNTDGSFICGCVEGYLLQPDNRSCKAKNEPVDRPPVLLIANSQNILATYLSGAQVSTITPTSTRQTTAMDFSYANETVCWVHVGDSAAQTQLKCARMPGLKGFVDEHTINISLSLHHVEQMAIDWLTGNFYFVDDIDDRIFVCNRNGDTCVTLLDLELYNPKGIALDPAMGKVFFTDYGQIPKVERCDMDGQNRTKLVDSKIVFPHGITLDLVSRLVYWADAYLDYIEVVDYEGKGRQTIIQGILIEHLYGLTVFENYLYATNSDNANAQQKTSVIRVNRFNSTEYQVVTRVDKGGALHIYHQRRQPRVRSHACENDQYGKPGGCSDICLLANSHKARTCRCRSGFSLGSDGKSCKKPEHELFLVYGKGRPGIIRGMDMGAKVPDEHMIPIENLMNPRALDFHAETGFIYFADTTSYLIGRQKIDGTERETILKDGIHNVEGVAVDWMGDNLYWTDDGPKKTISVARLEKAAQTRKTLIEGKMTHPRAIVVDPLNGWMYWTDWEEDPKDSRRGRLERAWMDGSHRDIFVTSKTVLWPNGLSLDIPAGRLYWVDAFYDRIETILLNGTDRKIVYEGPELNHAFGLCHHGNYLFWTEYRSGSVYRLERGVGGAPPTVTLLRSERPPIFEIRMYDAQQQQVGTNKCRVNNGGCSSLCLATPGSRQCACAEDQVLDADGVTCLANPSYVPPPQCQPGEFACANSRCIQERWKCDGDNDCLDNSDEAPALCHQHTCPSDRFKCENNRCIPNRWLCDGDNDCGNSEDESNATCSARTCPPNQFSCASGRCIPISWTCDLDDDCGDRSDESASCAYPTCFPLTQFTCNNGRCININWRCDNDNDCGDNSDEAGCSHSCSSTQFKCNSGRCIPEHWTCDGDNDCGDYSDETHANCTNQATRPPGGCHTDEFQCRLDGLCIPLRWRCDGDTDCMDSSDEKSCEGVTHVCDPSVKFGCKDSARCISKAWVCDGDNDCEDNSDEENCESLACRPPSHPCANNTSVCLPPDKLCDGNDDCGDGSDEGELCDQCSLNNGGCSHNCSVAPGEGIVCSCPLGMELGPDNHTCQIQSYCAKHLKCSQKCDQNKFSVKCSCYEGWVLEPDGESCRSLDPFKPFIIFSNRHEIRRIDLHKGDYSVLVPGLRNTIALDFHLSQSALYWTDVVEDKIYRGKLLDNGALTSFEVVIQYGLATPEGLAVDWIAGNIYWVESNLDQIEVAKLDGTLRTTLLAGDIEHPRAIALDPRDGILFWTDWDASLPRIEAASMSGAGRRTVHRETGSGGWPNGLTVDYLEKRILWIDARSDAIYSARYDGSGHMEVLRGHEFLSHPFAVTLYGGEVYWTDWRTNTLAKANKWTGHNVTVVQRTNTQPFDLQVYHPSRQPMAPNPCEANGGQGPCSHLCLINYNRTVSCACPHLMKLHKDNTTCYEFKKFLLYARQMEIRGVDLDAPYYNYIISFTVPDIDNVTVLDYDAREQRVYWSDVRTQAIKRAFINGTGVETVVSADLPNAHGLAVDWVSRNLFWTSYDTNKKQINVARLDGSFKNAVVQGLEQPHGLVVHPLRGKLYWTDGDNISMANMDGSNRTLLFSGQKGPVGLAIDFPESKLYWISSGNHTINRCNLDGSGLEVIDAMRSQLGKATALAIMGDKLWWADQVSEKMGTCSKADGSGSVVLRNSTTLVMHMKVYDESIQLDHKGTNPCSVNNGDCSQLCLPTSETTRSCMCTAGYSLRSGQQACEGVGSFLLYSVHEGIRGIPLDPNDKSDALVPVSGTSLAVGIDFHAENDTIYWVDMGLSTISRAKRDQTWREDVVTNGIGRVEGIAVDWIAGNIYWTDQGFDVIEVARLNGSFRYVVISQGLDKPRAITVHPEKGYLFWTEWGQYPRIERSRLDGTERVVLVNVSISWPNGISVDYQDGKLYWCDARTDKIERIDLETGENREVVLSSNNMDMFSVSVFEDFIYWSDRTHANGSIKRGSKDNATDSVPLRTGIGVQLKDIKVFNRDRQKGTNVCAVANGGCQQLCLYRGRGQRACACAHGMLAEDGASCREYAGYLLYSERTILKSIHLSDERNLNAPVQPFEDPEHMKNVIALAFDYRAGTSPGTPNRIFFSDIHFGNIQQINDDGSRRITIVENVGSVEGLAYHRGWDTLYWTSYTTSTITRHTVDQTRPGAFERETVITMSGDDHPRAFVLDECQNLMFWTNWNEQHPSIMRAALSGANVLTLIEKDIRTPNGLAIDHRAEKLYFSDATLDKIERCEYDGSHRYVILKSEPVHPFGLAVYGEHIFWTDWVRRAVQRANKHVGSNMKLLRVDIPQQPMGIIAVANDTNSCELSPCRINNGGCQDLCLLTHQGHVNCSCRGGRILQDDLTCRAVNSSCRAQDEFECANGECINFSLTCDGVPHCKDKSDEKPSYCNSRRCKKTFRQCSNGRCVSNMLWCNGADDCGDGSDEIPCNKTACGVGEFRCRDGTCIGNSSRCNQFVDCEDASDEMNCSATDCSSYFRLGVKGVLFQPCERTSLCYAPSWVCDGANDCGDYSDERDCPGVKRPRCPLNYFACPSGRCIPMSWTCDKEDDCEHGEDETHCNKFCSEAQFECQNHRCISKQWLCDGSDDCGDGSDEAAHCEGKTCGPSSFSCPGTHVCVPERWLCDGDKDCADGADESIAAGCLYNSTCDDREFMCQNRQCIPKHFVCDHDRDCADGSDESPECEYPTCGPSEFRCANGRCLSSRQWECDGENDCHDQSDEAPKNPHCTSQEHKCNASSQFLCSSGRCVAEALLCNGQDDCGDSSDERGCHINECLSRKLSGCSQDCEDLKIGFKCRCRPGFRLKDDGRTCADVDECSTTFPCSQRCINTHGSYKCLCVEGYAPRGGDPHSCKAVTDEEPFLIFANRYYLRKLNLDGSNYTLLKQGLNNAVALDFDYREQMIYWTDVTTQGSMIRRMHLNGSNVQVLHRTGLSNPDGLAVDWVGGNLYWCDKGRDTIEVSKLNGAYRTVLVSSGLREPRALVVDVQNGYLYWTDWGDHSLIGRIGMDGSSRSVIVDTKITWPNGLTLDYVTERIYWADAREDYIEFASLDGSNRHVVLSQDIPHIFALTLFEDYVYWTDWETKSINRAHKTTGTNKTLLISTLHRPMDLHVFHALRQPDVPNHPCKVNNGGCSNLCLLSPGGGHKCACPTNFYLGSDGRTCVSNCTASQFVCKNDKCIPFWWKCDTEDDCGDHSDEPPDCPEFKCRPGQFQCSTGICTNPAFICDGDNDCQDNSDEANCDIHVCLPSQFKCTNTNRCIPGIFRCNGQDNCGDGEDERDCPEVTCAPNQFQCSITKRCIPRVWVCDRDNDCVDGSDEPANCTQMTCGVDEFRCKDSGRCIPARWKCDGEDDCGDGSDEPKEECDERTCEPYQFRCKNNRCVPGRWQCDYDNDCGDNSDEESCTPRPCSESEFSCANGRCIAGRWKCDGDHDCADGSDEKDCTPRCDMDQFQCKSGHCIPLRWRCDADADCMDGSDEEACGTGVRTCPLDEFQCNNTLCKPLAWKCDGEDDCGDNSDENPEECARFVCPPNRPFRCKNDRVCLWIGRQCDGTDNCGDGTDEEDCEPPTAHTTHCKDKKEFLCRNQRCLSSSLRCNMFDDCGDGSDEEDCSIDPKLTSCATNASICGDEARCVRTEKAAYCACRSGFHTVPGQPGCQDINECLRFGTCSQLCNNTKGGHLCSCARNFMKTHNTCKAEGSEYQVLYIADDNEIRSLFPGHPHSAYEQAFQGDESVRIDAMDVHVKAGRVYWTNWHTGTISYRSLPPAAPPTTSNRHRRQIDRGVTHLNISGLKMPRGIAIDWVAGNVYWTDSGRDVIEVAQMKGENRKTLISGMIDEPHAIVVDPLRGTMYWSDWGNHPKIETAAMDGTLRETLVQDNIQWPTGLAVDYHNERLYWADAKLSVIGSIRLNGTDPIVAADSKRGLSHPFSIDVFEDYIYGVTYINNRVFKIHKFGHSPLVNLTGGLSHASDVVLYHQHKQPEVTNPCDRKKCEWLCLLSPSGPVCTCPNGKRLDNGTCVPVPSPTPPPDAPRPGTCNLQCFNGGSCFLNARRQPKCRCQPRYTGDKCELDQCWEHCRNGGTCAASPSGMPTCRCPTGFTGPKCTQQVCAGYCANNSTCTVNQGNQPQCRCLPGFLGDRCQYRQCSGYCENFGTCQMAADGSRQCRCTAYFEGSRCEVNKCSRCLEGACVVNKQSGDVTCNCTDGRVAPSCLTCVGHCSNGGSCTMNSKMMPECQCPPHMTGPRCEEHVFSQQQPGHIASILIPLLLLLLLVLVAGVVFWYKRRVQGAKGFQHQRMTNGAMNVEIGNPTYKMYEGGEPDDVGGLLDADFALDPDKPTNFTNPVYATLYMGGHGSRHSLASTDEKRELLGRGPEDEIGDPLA
UniProt O75197: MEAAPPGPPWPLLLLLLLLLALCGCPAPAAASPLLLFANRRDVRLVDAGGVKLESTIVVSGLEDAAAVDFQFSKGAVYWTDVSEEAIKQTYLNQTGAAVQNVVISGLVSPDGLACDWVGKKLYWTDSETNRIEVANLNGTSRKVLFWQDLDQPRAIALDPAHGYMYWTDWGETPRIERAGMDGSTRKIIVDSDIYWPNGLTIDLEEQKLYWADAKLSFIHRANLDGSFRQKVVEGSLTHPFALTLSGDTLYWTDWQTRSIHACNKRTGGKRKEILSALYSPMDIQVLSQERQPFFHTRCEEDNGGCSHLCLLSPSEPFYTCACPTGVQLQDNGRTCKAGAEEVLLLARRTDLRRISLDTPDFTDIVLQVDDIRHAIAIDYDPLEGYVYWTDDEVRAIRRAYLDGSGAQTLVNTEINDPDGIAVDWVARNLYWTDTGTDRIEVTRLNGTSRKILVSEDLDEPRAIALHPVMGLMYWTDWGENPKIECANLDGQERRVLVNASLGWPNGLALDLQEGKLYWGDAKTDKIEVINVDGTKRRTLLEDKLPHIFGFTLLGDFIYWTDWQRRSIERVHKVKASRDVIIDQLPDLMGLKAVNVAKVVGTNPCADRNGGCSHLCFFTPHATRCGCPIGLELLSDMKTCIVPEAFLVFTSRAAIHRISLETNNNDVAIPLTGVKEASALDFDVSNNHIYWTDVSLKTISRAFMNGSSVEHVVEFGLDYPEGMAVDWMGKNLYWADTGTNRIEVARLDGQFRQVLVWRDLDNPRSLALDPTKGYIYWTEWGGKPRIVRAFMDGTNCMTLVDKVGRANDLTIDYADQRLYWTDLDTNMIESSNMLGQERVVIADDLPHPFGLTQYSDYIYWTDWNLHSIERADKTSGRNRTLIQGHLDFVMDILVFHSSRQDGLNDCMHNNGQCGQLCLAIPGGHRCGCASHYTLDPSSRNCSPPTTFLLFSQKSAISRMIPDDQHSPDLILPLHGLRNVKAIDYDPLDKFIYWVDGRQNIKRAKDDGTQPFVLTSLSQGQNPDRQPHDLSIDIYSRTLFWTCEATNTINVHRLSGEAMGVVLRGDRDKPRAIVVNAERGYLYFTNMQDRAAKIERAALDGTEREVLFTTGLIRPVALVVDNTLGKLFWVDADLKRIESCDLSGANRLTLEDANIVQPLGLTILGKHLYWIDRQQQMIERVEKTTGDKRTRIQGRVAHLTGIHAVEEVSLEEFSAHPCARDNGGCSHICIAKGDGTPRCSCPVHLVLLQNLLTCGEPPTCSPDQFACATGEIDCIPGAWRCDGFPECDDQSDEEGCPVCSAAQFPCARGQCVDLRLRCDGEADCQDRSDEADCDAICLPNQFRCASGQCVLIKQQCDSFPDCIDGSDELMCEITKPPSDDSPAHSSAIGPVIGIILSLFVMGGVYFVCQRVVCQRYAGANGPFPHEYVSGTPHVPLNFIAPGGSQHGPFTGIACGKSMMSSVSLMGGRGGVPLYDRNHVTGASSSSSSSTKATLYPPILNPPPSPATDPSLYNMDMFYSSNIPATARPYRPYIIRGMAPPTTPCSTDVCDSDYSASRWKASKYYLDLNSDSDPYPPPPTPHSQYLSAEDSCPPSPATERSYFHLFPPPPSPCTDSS

Assays:
Test in all cases: log2 fold change, soluble protein after heating vs DMSO (PISA); higher = thermal stabilisation; K562 lysate, 10 uM; active = over 0.2 and 3.5 SD of the protein, either way, in both replicates (recomputed)
[1] = compound: Cn1cc(CNCC2CCN(c3ncc(C(=O)NO)cn3)CC2)c2ccccc21 [quisinostat]
How it was run: (§1)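 Dounce homogenisation of K562 pellets in PBS pH 7.4 with 1 mM MgCl2 produced a crude extract, used at 1 mg/mL protein. Exposure to 10 μM compound lasted 30 min, and aliquots were then heated for 3 min across 48°C-58°C, pooled and brought to 0.5% NP-40 at 4°C. The supernatant after 21,000xg for 90 min was quantified by TMTpro 16plex LC-MS/MS with channel sums equalised. Duplicate values are given as log-two fold change in thermal stability relative to solvent controls.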

[2] = compound: NC(=O)Nc1cc(-c2cccc(F)c2)sc1C(=O)N[C@H]1CCCNC1
How it was run: as §1

[3] = compound: NC(=O)c1cnc(N[C@@H]2CCCC[C@@H]2N)nc1Nc1cccc(-n2nccn2)c1
How it was run: as §1

[4] = compound: Cc1nc(Nc2ncc(C(=O)Nc3c(C)cccc3Cl)s2)cc(N2CCN(CCO)CC2)n1 [dasatinib]
How it was run: as §1

[5] = compound: Cn1cc(-c2ccc3c(c2)CCN3C(=O)Cc2cccc(C(F)(F)F)c2)c2c(N)ncnc21
How it was run: as §1

[6] = compound: NC1(c2ccc(-c3nc4ccn5c(=O)[nH]nc5c4cc3-c3ccccc3)cc2)CCC1
How it was run: as §1

Target	log2 fold change [1]	log2 fold change [2]	log2 fold change [3]	log2 fold change [4]	log2 fold change [5]	log2 fold change [6]
LRRC25 (UniProt Q8N386)	inactive: 0.05	inactive: 0.155	inactive: -0.083			
LRP1 (UniProt Q07954)	active: -0.936	inactive: 0.114	inactive: 0.122			
LRP5 (UniProt O75197)				inactive: 0.098	inactive: -0.117	inactive: -0.067
